3 compounds from PMC5665762, “Phase 1 study of veliparib with carboplatin and weekly paclitaxel in Japanese patients with newly diagnosed ovarian cancer” (Cancer Science, 2017) can be followed below.

A value given as a limit tells only on which side of the number the result lay.

The data set concerns Japanese patients with newly diagnosed ovarian cancer. Briefly: Phase 1 safety/tolerability: treatment-emergent adverse events, DLT, MTD, RP2D. The conditions noted are these: all patients, up to 6 cycles. The protocol: This was a phase 1, open‐label, multicenter, dose‐escalation study to evaluate the tolerability, safety, PK and preliminary efficacy of oral veliparib in combination with carboplatin and weekly paclitaxel in Japanese patients with ovarian cancer. Patients were assigned to treatment with veliparib at either 100 mg (dose level 1 [DL1]) or 150 mg (DL2) b.i.d. on days 1–21 of a 21‐day cycle. […] After completion of cycle 1, subsequent cycles were not begun until the patient's ANC was ≥1500/mm^3 and the platelet count ≥100 000/mm^3. Patients with ANC 1000–1499/mm^3 or platelet count 75 000–99 000/mm^3 (or both) could proceed to the next cycle of therapy with a predefined dose modification (Table S1). On day 8 or 15 of each cycle, another dose modification guideline was applied (Table S2). The patient's participation in the study was discontinued upon the third occurrence of hematologic toxicity that required dose modification per protocol. Treatment could be postponed for up to 21 days because of toxicity; longer toxicity‐related delay led to study discontinuation. Reduction of carboplatin and paclitaxel doses was permitted based on the toxicity observed (Table S3), which could necessitate discontinuation of either agent. At the investigator's discretion, patients who discontinued veliparib were […] to discontinue the study but could continue to receive carboplatin and paclitaxel as standard of care. The trial was conducted in accordance with good clinical practice, the International Conference on Harmonization guidelines, and the 1964 Declaration of Helsinki and its later amendments; written informed consent was obtained from all patients before study enrollment. […]
Dose‐limiting toxicities were determined based on events that occurred during the DLT evaluation period from day 1 of cycle 1 through pre‐dosing on day 1 of cycle 2. […] The RP2D was determined on the basis of assessment of the observed toxicities, the MTD, the overall safety profile of the regimen, and the PK of veliparib. […]
`C[C@]1(c2nc3c(C(N)=O)cccc3[nH]2)CCCN1` [Veliparib]: the median dose intensity is listed as 100%.

As for `N.N.O=C([O-])C1(C(=O)[O-])CCC1.[Pt+2]` [carboplatin], the median dose intensity is at least 75%.

Turning to `CC(=O)O[C@H]1C(=O)[C@@]2(C)[C@H]([C@H](OC(=O)c3ccccc3)[C@]3(O)C[C@H](OC(=O)[C@H](O)[C@@H](NC(=O)c4ccccc4)c4ccccc4)C(C)=C1C3(C)C)[C@]1(OC(C)=O)CO[C@@H]1C[C@@H]2O` [paclitaxel], the median dose intensity is on record as at least 75%.
